Results on 38 variants are retold here after the RNAGym collection of RNA variant scans (doi:10.1126/science.aae0568).

Variants at the floor of the assay are shown more often than the library holds them. Where only a bound is given, the exact number is not on record here.

B1: tRNA (parent)
chain: GUUCCGUUGGCGUAAUGGUAACGCGUCUCCCUCCUAAGGAGAAGACUGCGGGUUCGAGUCCCGUACGGAACG

The data set covers variants of B1. Kind of data set: yeast fitness relative to wild type (ratio to wild type); higher = fitter; tRNA-Arg(CCU), competitive growth, 37 C, YPD. In a few lines: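 Genotype frequency changes were the basis for Darwinian fitness relative to wild type. The frequencies came from 100-nucleotide paired-end sequencing of gene amplicons from the start population and each end population of pooled yeast strains with tRNA-Arg(CCU) gene variants at the native locus. Competition ran in YPD at 37°C for 24 hours in six replicates, genotypes needed ≥ 100 starting reads, and estimates < 0.5 were set to 0.5.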
In the case of GUUCCGGUGGCGUAAUGGUAACGCGUUUCCCUCCUCAGGAGAAGACUGCGGGUUCGAGUCCCGUACGGAACG [U7G C27U A36C], the yeast fitness was at most 0.5.

As for GUUCCGGUGGCGUGAUGGUAACGCGUCUCCUUCCUAAGGAGAAGACUGCGGGUUAGAGUCCCGUACGGAACG [U7G A14G C31U C55A], the yeast fitness was at most 0.5.

As to GUUCCGUUGGCGUAAUGGGAACGCGUCUCCCUCCUCAGGAGAAGACUGCGGGUUCGAGUCCCGUGCGGAACG [U19G A36C A65G], the yeast fitness is at most 0.5. On to GUUCCGUUGGCGUAAUGGUAACGGGUCUCCCUCCUAUGGAGAAGACUGCGGGUUCAAGUCCCGUCCGGAACG [C24G A37U G56A A65C], for which the yeast fitness was at most 0.5. With GUUCCGUUGGCGUAAUGGUAACGCGUCUCCCUCCUAAGGAGAAGCCAGCGGGUUCGAGUCCCGUAUGGAACG [A45C U47A C66U], the yeast fitness turned out to be 0.595. For GUUCCGUUGGCGUAAUGGUAACGCGUCUCGCUGCUAAGGAGAAGACUGGGGGUUCGAGUCCCGUACGGACCG [C30G C33G C49G A70C], the yeast fitness was at most 0.5. As for GUUCCGUUGGCGUAAUGGUAACGUGUCUCCCUCCUAAGGAGAAGACUCCGGGUUCGAGUCCCGUACGGAACG [C24U G48C], the yeast fitness was found to be 0.955. Take GUUCCGUUGGCGUAAUAGUAACGCGUCUCCCUCCUUAGGAGAAGACUGCGGGUUCGAGUCCCGUACGGAACG [G17A A36U]: the yeast fitness was at most 0.5. Turning to GUUCCGUUGGCGUAAUGGUAACGCGUCUCCCUCCUAAGGAAAAGACUGCGGGUUCGAGUCCCGUACGGAUCG [G41A A70U], the yeast fitness turned out to be 0.977.

In the case of GUUCCGGUGGCGUAAUGAUAACGCAUCUGCCUCAUAAGGAGAAGACUGCGGGUUCGAGUCCCGUACGGAACG [U7G G18A G25A C29G C34A], the yeast fitness was at most 0.5.

With GUUCCGUUGGCGUGAUGGUACCGCGUCUCGCUCCUAAGGAGAAGACUGCGGGUUCGAGUCCCAUACGGAACG [A14G A21C C30G G63A], the yeast fitness was at most 0.5. Take GUUUCGUAGGUGUAAUGGUAAUGCGUCUCCCUCCUAAGGAGAAGACUGCGGGUUCGUGUCCCGUACGGAACG [C4U U8A C11U C22U A57U]: the yeast fitness is at most 0.5. With GUUCAGUUGGCGUAAUGGUAAGGCGUCUCCCUCCUACGGCGAAGACUGCGGGUUCGAGUCCCGUACGGCACG [C5A C22G A37C A40C A69C], the yeast fitness was at most 0.5. On to GAUCCGUUGGGGUAAUGAUAUCGCGUCUCCCUCCUAAGGAGAAGACUGCGGGUUCGAGUCCCCUACGGAACG [U2A C11G G18A A21U G63C], for which the yeast fitness is at most 0.5. Take GUUCCGUUGGCGUAAUGGUAACGCCUAUCCCUCCUAAGGAGAAGACUGCGGGUUCGAGUCCCGUACGGAACG [G25C C27A]: the yeast fitness turned out to be 0.678. The value for GUUCCGUUGGCGUAAUGGUAACGCGUCUCCCUCCUAAGGAGAUGGCUGCGGGUUGGAGUCCCGUACGGAACG [A43U A45G C55G] was at most 0.5; that for GUUCCGUUGGCGUAAUGGUUAGACGUCUCCCUCCUAAGGAGAUGACUGCAGGUUCGAGUCCCGUACGGAACG [A20U C22G G23A A43U G50A] was at most 0.5; that for GUUCCGUUGGCGUCAUGGUAAGGCGGCUCCCUCCUUAGGAGAAGUCUGCGGGUUCGAGUCACGUACGGAACG [A14C C22G U26G A36U A45U C61A] was at most 0.5. The value for GUUCGGUGGGCGUAAUGGUAACGCGUCUCCCUCCUAAAGAGAAGAAUGCAGGCUCGAGUCCCGUACGGAACG [C5G U8G G38A C46A G50A U53C] was at most 0.5; that for GUUCUGUUGGCGUAUUGGUAACGCGUGUCCCUCCUAAGGAGAAGACUGCGGGUUCGAGUCCUGUACGGAACG [C5U A15U C27G C62U] was at most 0.5; that for GUUCCGUUGGCGUAAUGAUUACGCGUCUCCCUCCUUAGGAGAAGACUGCGGGUUCGAGUCCUGUACGGAACG [G18A A20U A36U C62U] was at most 0.5. GUUCUGUUGGCGUAAUGGUAAAGCGCCUCCCUCCUUAGGAGAAGUCCGCGGGUUCGAGUCUCGUACGGAACG [C5U C22A U26C A36U A45U U47C C61U]: the yeast fitness was at most 0.5.

In the case of GUUCCGUUGGCGUAAUGGUAACGCGUCUCCUUCCUCAGGAGAAGACUGCGGGUUCGAGUCCCGUACGGAACG [C31U A36C], the yeast fitness is 0.842. In the case of GUUCCGUUGGCGUAAUGCUAACGCGUCUCCCUCCUAAGGAGAAGACUGAGGGUACGGGUCCCGUACGGAACG [G18C C49A U54A A57G], the yeast fitness was at most 0.5. Regarding GUUCCGUUGGCGUAAUGGUAAUGCGUCUCCCUCCUCGGGAGAAGACUGCGGGUUCGAGUCCCGUGCGGAACG [C22U A36C A37G A65G], the yeast fitness is at most 0.5. On to GUUCCGUUGGUGUAAUGGUAACACGUCUCCCUGCUAAGGAGAAGACUGCGGGUUCGAGUCCCGUACGGCACG [C11U G23A C33G A69C], for which the yeast fitness is at most 0.5. As to GUUCCGUUGGCGUAAUGGUAACGCGUCUCCCUCCUAAGGAGAAGCCUGCGCGCUCGAGUCCCGUACGGAACG [A45C G51C U53C], the yeast fitness was at most 0.5. The value for GUUCCGUUGGCGUAAUGGUAAUGCGUCUCCCUCGUUAGGAGAAGACUGCGGGUUCGAGUCCCGUCCGGAACG [C22U C34G A36U A65C] was 0.573; that for GUUCCGUUGGGGUAAUGGUCACGCGUCUCCCUCCUAAGGAGAAGACUGCGGGUUCGAGUCCCGUACGGUACG [C11G A20C A69U] was at most 0.5; that for GUUCCGUUGGCGUAAUGGUACCGCGUUUCCCUCCUAAGGAGAAGACUGGGGGUUCGAGUCCCGCACGGAACG [A21C C27U C49G U64C] was at most 0.5. On to GUUCCAUUGGCGUAAUGGUAACGCGUCUCGCUCCUAAGGAGAAGUCUGCGGGUUCGAGUCCCGUACGGAACG [G6A C30G A45U], for which the yeast fitness was at most 0.5. Turning to GUUCCGUUGGCGUAAUGGUAAUGCGUCUCCCUCCUAAGGAGAAAAGUGCGAGUUCGAGUCCCAUACGGAACG [C22U G44A C46G G51A G63A], the yeast fitness is at most 0.5. On to GUUCCGUGGGCGUAAUGGUAACGGGUCUCCCUCCUAAGGAGAAGACUGCGGGUUCGAGUCCCGUAAGGAACG [U8G C24G C66A], for which the yeast fitness is at most 0.5. In the case of GUUCCGUUGGCGUAAUGGUAACGCGUCUUCCUGCUAAGGAGAAGACUGCGGGUUCGAGUCCCGUACAGAACG [C29U C33G G67A], the yeast fitness is at most 0.5. For GUUCCAUUGGCGUAAUGGUAACGCGUCUCUCUCCUAAGGGGAAGACUGCGGGUUUGAGUCCCGCACGGAACG [G6A C30U A40G C55U U64C], the yeast fitness is at most 0.5. With GUUCUGUUGGCGUAAUGGUAACGCGUCUCCCUCCUAAGGAGAAGACCGUGGGUUCGAGUCCCGAACGGAACG [C5U U47C C49U U64A], the yeast fitness is at most 0.5.

With GUUACGUUGGCGUAAUGGUAACGCGUCUCCCUCCUCAGGAGAAGACUGCGGGUUCGAGUCCCGUACGCAACG [C4A A36C G68C], the yeast fitness is at most 0.5. Regarding GUUCCGUUGGCGUAAUGGUAACGGGUCUCCCUCCUAAGGAGAAGACUGCGGGUUCGAGUCCAGUACGGAACG [C24G C62A], the yeast fitness was at most 0.5.
